{"source": "patent US20260382770A1", "about": "“MACROCYCLIC COMPOUND AND USE THEREOF” (published 2026)", "test_system": "canine plasma proteins", "assay": "In vitro canine plasma protein binding rate of compounds", "details": "1 mM, ultracentrifugation, 37 °C, individual replicates", "method": "1. Test samples: EIucirem™ (Gadopiclenol, commercially purchased, lot P233A), compound 4\nElucirem™ and compound 4 were respectively diluted with blank canine plasma to prepare plasma samples at a concentration of 1 mM. The binding rates of Gadopiclenol and compound 4 to canine plasma proteins were determined by ultracentrifugation. After the preparation of plasma samples, 0.5 mL of plasma samples were transferred into ultracentrifugation tubes, with 3 replicates per concentration. After incubation in a CO2 incubator at 37 °C for 0.5 h, the samples were subjected to ultracentrifugation at 627,000 g for 3 hours at 37 °C. After centrifugation, 100 μL of samples were taken from the central layer of the ultracentrifugation tubes and mixed with 100 μL of blank plasma. The samples were stored at −70 °C for subsequent determination. The concentrations of Gadopiclenol and compound 4 in the samples were quantitatively analyzed by LC-MS/MS.\nThe plasma protein binding rates of analytes at different concentration levels were calculated using the following formulas:\nFree rate %=(Concentration of the central layer in ultracentrifugation tubes(Cu)/Concentration of non-ultracentrifuged samples after 0.5 h incubation(C0-5h))*100%, • Binding rate %=100%—Free rate %.", "note": "Some entries of the source have several records that differ or are many. The list is limited to them. There may be further records. The records of an entry differ, and nothing given here explains why; they may come from other doses, times, organisms or constructs than stated."}
{"substance": "Gadopiclenol", "values": [{"measurement": "Binding rate %", "value": "−1.27%, −2.05%, −0.41%"}]}
